The record followed here is article PMC5931981, “Identification of a pyrophosphate-dependent kinase and its donor selectivity determinants” (Nature Communications, 2018).

This experiment addresses TM0415 from the hyperthermophilic bacterium Thermotoga maritima (Thermotoga maritima) (UniProt Q9WYP6). As to the kind of experiment: SEC; size exclusion chromatography of TM0415 in solution (Supplementary Fig. 3b); both purified. A general note: In gel filtration, larger molecules generally elute earlier.

These are yes or no findings as the source states them, for the method shown.

B1: TM0415 from the hyperthermophilic bacterium Thermotoga maritima (enzyme, UniProt Q9WYP6 1-286)
chain: MITFIGHVSKDVNVVDGKREIAYGGGVVMGAITSSLLGVKTKVITKCTREDVSKFSFLRDNGVEVVFLKSPRTTSIENRYGSDPDTRESFLISAADPFTESDLAFIEGEAVHINPLWYGEFPEDLIPVLRRKVMFLSADAQGFVRVPENEKLVYRDWEMKEKYLKYLDLFKVDSREAETLTGTNDLRESCRIIRSFGAKIILATHASGVIVFDGNFYEASFRSWSLEGRTGRGDTCTAAFLVGFVFKKMSIEKATKFAAAVTSVKMRHPGPLRREDLEAISGDQYF
As to B1, the binding result is on record as “no binding”.
